Results deposited as PubChem BioAssay AID602196 (INSERM, 2012).

- Aim: 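Genes whose knock-down alters cisplatin killing of lung cancer cells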
- System: human A549 lung cancer cells
- Reagents: siRNA pair against human genes
- Timing: 48 h transfection before cisplatin; time from cisplatin to read-out not stated
- Treatment: cisplatin at a dose killing half of control-siRNA cells; exact dose and duration not given
- Measurement: 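Shift in cisplatin death relative to control siRNA, from -50 (all cells die) to +50 (no cells die); siRNAs harmful on their own scored 0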
- Reading the numbers: two-siRNA summed score (-2 to +2): higher = both siRNAs protect from cisplatin killing; -2 means both sensitise; mean protection from cisplatin (shift in death): higher = protection from cisplatin killing
- Call rule: 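Each siRNA scores 0 if harmful alone by LDH or WST-1, otherwise +1 if it reduces and -1 if it increases cisplatin killing; a gene is active when both siRNAs agree (sum +2 or -2)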
- Meaning of the calls: active = both siRNAs shift cisplatin killing the same way; inactive = no consistent shift, or siRNA harmful alone
This is one part, drawn at random, of about 23,000 reagents tested. Of all reagents, 455 (2%) were called active. 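Active includes both protection and sensitisation; some change values fall well beyond the stated -50 to +50 range.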 Entries without a mark were called inactive. Further read-outs or replicates are left out here. Not given: the amount of reagent.

gene | two-siRNA summed score (-2 to +2) | mean protection from cisplatin (shift in death) (%)
NPAS3 | 0 | 1.9
LOC401062 | 0 | 3.4
CDH8 | 1 | 6.5
NPBWR1 | 1 | 14.5
LOC440517 | 0 | 17.3
ABHD18 | 0 | 0.9
HSD17B2 | 0 | -5.9
LOC400161 | 0 | 9.6
SEPTIN14P6 | 0 | 4.2
ESR1 | 0 | 0.4
LOC440508 | 0 | 2.9
SPCS1 | 0 | 6.2
OR1D5 | 0 | 17.9
ERLIN2 | 1 | 8.2
HIRIP3 | -2 (active) | -18.5
COXFA4L2 | 0 | 6.4
RAB3IP | 0 | -2.7
PSMA1 | 0 | 11.6
TRIM51HP | 0 | 11
FKBP8 | 0 | -14.5
DEFB125 | 1 | 9.4
TMEM184B | 1 | 18.4
LOC387901 | 0 | 7.7
CARD8 | -1 | -14.9
HDAC1 | -1 | -20.9
SKIC3 | 1 | 14.5
ZNF648 | 0 | 7.2
MRPL55 | 0 | 1.5
CENPE | 0 | 2.1
ARHGEF2 | 0 | -11.3
LOC441449 | 0 | -3.2
SIRPG | -1 | -12.6
PTK6 | 0 | 4.8
WWP1 | 0 | 5.5
HERC2 | 1 | 8.8
FGF19 | -1 | -4.1
APEX2 | -1 | -12.9
RAB24 | 0 | -5
ASCC1 | 0 | 6.4

Limited to “two-siRNA summed score (-2 to +2)” (5 entries from above):
LOC400161	0
SEPTIN14P6	0
ESR1	0
LOC440508	0
SPCS1	0
